Laboratory results published in PubChem BioAssay AID2685 (National Center for Advancing Translational Sciences (NCATS), 2010).
“And” between values parts separate entries of the source, which are not always exact repeats. Equal values may be shown once. The list shows a part of the results. Further columns of the screen follow, without active or inactive calls. Compounds called inactive in the main read-out are mostly missing here. The note in brackets gives the kind of curve behind each potency; many fits are weak.

Assay: qHTS Assay for Lipid Storage Modulators in Drosophila S3 Cells;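 for cell number change: cells counted by Cell Tracker Red CMTPX staining in the red channel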
Settings: BODIPY lipid droplet fluorescence, 18-24 h; for cell number change: measured here: cell count max response, cells fed with added oleic acid
Summary of the method: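 Drosophila S3 cells got compounds at several concentrations plus oleic acid (400 uM solution). Laser-scanning cytometry with 488 nm excitation read lipid droplets at 500-530 nm and cells at 575-640 nm. Percent activity was relative to 20 uM Triacsin C.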

[1] = measured here: cell number channel AC50, cells fed with added oleic acid
[2] = measured here: lipid fluorescence (Fed channel) AC50, cells fed with added oleic acid

| Compound | cell number change | AC50 [1] | AC50 [2] |
| --- | --- | --- | --- |
| COc1ccc2cc(C3NC(=O)c4ccccc4N3)c(Cl)nc2c1 (stereo unspecified) | 6.41% | 0.146 µM [falling, full curve, poor fit] | 0.103 µM [falling, full curve, poor fit] |
| COc1cccc(Cn2c(-c3cccs3)noc2=O)c1 | 10.1% | – | 16.4 µM [rising, single point] |
| Cc1ccc(-n2c(SCC(=O)OC(C)C)nnc2-c2ccccn2)cc1 | -7.76% | – | 0.116 µM [rising, partial curve, poor fit] |
| Cc1c2cnn(-c3ccccc3)c(=O)c2c(C)n1CCCC(=O)NCCN1CCN(C)CC1 | 35.1% | 25.9 µM [rising, single point] | 20.6 µM [rising, single point] |
| CC(=O)N1C(=O)C(=C2C=C(C)OC(C)=C2)c2ccccc21 | -8.93% | – | 6.51 µM [falling, single point] |
| CCC(C)N(C(=O)c1csnn1)C(C(=O)NC1CCCC1)c1ccc(F)cc1 (stereo unspecified) | -7.62% | – | – |
| O=C(CCCn1cncn1)N1CCCC(N2CCN(c3ccccc3F)CC2)C1 (stereo unspecified) | -12.2% | – | 0.58 µM [rising, single point] |
| Fc1ccc(-c2cc3nc(-c4ccccc4)cc(N4CCN(CCN5CCOCC5)CC4)n3n2)cc1 | 43.7% | 32.6 µM [rising, single point] | 29.1 µM [rising, single point] |
| CC(Sc1nc2cc([N+](=O)[O-])ccc2n1-c1ccc(F)cc1)C(=O)NCc1ccc2c(c1)OCO2 (stereo unspecified) | 2.99% | – | 6.51 µM [rising, partial curve] |
| OC1NC(=S)N(c2ccccc2)C1O (stereo unspecified) | -2.13% | 0.58 µM [falling, full curve] | – |
| CCOC(=O)Cn1c(-c2cccnc2Cl)nc2cc(C)c(C)cc21 | 3.96% | 6.51 µM [rising, single point] | 29.1 µM [rising, single point] |
| Cc1c(C(=O)O)cccc1-c1ccc(/C=N/Nc2ccc(Br)cc2)o1 | 3.85% | – | 2.31 µM [rising, partial curve, poor fit] |
| CCN(C(=O)c1ccco1)c1nnc(-c2cccnc2)s1 | 30.7% | – | 0.411 µM [falling, full curve] |
| CCOc1ccc(C(=O)NCC(=O)NCC(c2ccco2)N2CCCCC2)cc1 (stereo unspecified) | 0.268% | – | 3.66 µM [rising, single point] |
| CC(C)NCC(O)COc1c(F)cc(Br)cc1F (stereo unspecified) | -25.4% | – | 29.1 µM [falling, single point] |
| Cn1c(SCC(=O)N/N=C/C=C\c2ccco2)nc2ccccc21 | -31.8% | 8.2 µM [falling, partial curve, poor fit] | – |
| CCC1C(=O)N=C(SCC(=O)Nc2ccc(Br)cn2)NC1=O (stereo unspecified) | -47.2% | 2.06 µM [falling, partial curve] | 1.84 µM [falling, partial curve] |
| O=S(=O)(c1cnc[nH]1)N1CCCCCC1 | -39.5% | 18.4 µM [falling, single point] | 3.66 µM [falling, full curve] |
| Cc1[nH]n(-c2ccccc2)c(=O)c1C=Nc1ccc(S(=O)(=O)Nc2nccs2)cc1 | – | 0.411 µM [rising, single point] | – |

| Compound | cell number change | AC50 [1] | AC50 [2] |
| --- | --- | --- | --- |
| Cc1ccc(C(=O)NC(=O)OCCn2c(C)cnc2[N+](=O)[O-])cc1 | – | 0.146 µM [rising, partial curve, poor fit] | – |
| Cc1oc2c(c(C)cc3oc(=O)c(CC(=O)N[C@@H](CCCNC(N)=O)C(=O)O)c(C)c32)c1C | 18.9% | – | 29.1 µM [rising, single point] |
| C=CCn1c(=O)c2c(nc3n2CC(C)CN3c2cccc(OC)c2)n(C)c1=O (stereo unspecified) | -20.1% | – | 32.6 µM [falling, partial curve, poor fit] |
| O=C(NCc1ccccc1)c1cccc(OCC(=O)N2CCN(C(=O)c3ccco3)CC2)c1 | -0.057% | – | – |
| COC(=O)CSc1nc2ccccc2n1CC(=O)N(C(C)C)C(C)C | -25.1% | – | 6.51 µM [falling, partial curve] |
| CN(CC(=O)Nc1cccnc1Cl)S(=O)(=O)c1ccc(Cl)cc1 | 5.78% | – | 16.4 µM [rising, single point] |
| CCN1CCN(C(=O)CSCc2nc(-c3ccc(OC)c(OC)c3)oc2C)CC1 | -0.184% | – | – |
| O=C(CN1CCN(Cc2ccccc2)CC1)NCCNc1ccc([N+](=O)[O-])cn1 | -48.4% | 2.59 µM [falling, full curve] | 5.17 µM [falling, single point] |
| CC(C(=O)N1CCN(c2ccccc2)CC1)N1C(=O)C2CC=CCC2C1=O (stereo unspecified) | -39.2% | 4.61 µM [falling, full curve, poor fit] | 0.366 µM [falling, full curve, poor fit] |
| COc1cc(NC(=O)COc2ccccc2[N+](=O)[O-])ccc1NC(=O)c1cccs1 | -57.8% | – | – |
| Nc1cc(C(Cl)=C(Cl)Cl)c(S(N)(=O)=O)cc1S(N)(=O)=O | -33.2% | 0.092 µM [falling, full curve, poor fit] | 0.092 µM [falling, full curve, poor fit] |
| Fc1ccccc1Nc1nc(-c2ccncc2)nc2ccccc12 | 32.1% | 2.31 µM [rising, full curve] | – |
| Cc1ccc(NC(=O)CSc2nc(N)c3cc4c(nc3n2)CCCC4)cc1 | 3.41% | – | 29.1 µM [falling, single point] |
| CCN(CC(=O)Nc1c(F)cccc1F)C(=O)Cc1csc(-c2ccccc2)n1 | 107% | 29.1 µM [rising, single point] | 2.91 µM [falling, full curve, poor fit] |
| CCn1c(CNC(=O)c2ccccc2F)nnc1SCc1nc2ccccc2c(=O)[nH]1 | -22% | 1.84 µM [rising, partial curve] | 3.26 µM [rising, single point] |
| Cc1ccc(C)c(C(C)NC(=O)Cc2cccs2)c1 (stereo unspecified) | 10.2% | – | 23.1 µM [falling, single point] |
| O=C(CC(NCCc1ccccc1)C(=O)O)Nc1ccc(O)cc1 (stereo unspecified) | -40.9% | 0.366 µM [falling, full curve] | – |
| CCOC(=O)c1ccccc1NC(=O)CSc1ncc(C(=O)OCC)c(N)n1 | -22.4% | – | 0.13 µM [rising, full curve, poor fit] |
| O=C(CNS(=O)(=O)c1cccs1)N1CCN(c2ccccc2F)CC1 | 17.6% | 0.82 µM [rising, full curve, poor fit] | 2.91 µM [rising, single point] |

| Compound | cell number change | AC50 [1] | AC50 [2] |
| --- | --- | --- | --- |
| O=C(Nc1ccccc1C(=O)N1CCCCC1)c1ccc(Cl)cc1Cl | -1.28% | – | – |
| CC(=O)Oc1cccc(/C=C2\C=C(c3ccc(C)cc3)OC2=O)c1 | 10.7% | – | – |
| CCn1c(SCC(=O)Nc2nc(C)cs2)nnc1-c1ccoc1C | 96% | 0.651 µM [rising, single point] | 0.651 µM [rising, full curve] |
| CC(OC(=O)c1nn(C)c(=O)c2ccccc12)C(=O)NC1CCCCC1C (stereo unspecified) | – | 0.00461 µM [falling, full curve, poor fit] | 2.06 µM [falling, partial curve, poor fit] |
| O=C(Nc1cccc(-c2cccc(Cl)c2)c1)C1CCN(C2CCC2)CC1 | 5.66% | – | 29.1 µM [falling, partial curve, poor fit] |
| O=C(CCN1CCOCC1)Nc1cccc(Br)c1 | -12% | – | 0.0103 µM [falling, full curve, poor fit] |
| Cc1ccc(NC(=O)c2cc(-c3ccccc3)nn2-c2ccccc2)c(Br)c1 | -5.88% | – | 29.1 µM [falling, partial curve, poor fit] |
| COC(=O)c1cc(C(=O)Nc2nnc(CC(C)C)s2)cc([N+](=O)[O-])c1 | 22.3% | – | 29.1 µM [rising, single point] |
| COc1cccc(C(=O)COc2ccc3c(C)cc(=O)oc3c2)c1 | 24.3% | – | – |
| O=C(c1nnc(-c2ccncc2)o1)c1ccccc1Cl | 16.8% | – | 18.4 µM [rising, single point] |
| CN(C)S(=O)(=O)c1ccc(C(=O)Nc2nnc(SCc3ccccc3)s2)cc1 | 7.12% | – | – |
| Cc1n[nH]c(=O)nc1NCc1ccccc1 | 27.2% | – | 8.2 µM [falling, single point] |
| CC[C@H](C)C(=O)O[C@H]1CCC=C2C=C[C@H](C)[C@H](CC[C@@H]3C[C@@H](O)CC(=O)O3)[C@H]21 | 21.3% and -63.3% | 2.31 µM [rising, full curve, poor fit] and 23.1 µM [falling, partial curve, poor fit] | 23.1 µM [falling, partial curve, poor fit] |
| Brc1ccc(OCCOc2cccc3cccnc23)cc1 | -17.2% | – | 29.1 µM [falling, single point] |
| COC(=O)C1CCN(S(=O)(=O)CCNC(=O)c2cccc(OC)c2)CC1 | 6.85% | – | 0.651 µM [falling, full curve, poor fit] |
| Nc1nonc1C(=O)OCC(=O)N1CCOCC1 | 1.35% | – | – |
| Cc1ccc(-c2csc(=S)n2CC(=O)OCC(=O)NC(C)C(C)C)cc1 (stereo unspecified) | -14.4% | – | 29.1 µM [falling, single point] |
| C/C(=N/Nc1nc(C)cc(C)n1)c1ccc(Br)cc1 | -0.365% | – | – |
| C/C(=N\NC(=O)Cc1ccc(Cl)cc1)c1cccnc1 | 16.2% | – | 0.116 µM [rising, full curve, poor fit] |

Pulled by structure from the entries so far, 3 records:

| Compound | cell number change | AC50 [1] | AC50 [2] |
| --- | --- | --- | --- |
| COC(=O)c1cc(C(=O)Nc2nnc(CC(C)C)s2)cc([N+](=O)[O-])c1 | 22.3% | – | 29.1 µM [rising, single point] |
| Brc1ccc(OCCOc2cccc3cccnc23)cc1 | -17.2% | – | 29.1 µM [falling, single point] |
| Cc1ccc(-c2csc(=S)n2CC(=O)OCC(=O)NC(C)C(C)C)cc1 (stereo unspecified) | -14.4% | – | 29.1 µM [falling, single point] |
